PubChem BioAssay AID504808 – Drosophila RNAi Screening Center | 2011

Purpose: 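Fly genes required to hold E2F transcription in check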 (primary screen)
Cell system: Drosophila S2 cells
Knock-down reagent: long dsRNA against Drosophila genes
Detection: 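Firefly luciferase driven by E2F sites, normalised to Renilla luciferase on the same minimal promoter, measured by plate reader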
Scale: E2F firefly: higher = more E2F reporter activity; Renilla normaliser: higher = more normaliser reporter signal
Active means: 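a knock-down counted as active when the firefly/Renilla E2F signal rose above 50%, a threshold chosen arbitrarily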
In all, the deposit lists about 21,000 reagents; below is a random part of those that have a named target and a result. Of all reagents, 18 (0.084%) got an active call. 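Raw counts without plate normalisation, one of two replicates; the ratio scores behind the calls were not deposited.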 Unmarked entries are inactive. Names joined by + are all predicted targets of the reagent. Reagent sequences are not shown. The record does not give: the amount of reagent, the time to read-out.

| gene | dsRNA | E2F firefly, rep 1 | Renilla normaliser, rep 1 |
| --- | --- | --- | --- |
| Zn72D (Zinc-finger protein at 72D) | DRSC11318 | 86235 | 4229 |
| CG15040 | DRSC19616 | 53340 | 3640 |
| CG33169 | DRSC11853 | 1.30e5 | 7189 |
| Ada (Adenosine deaminase) | DRSC14463 | 1.25e5 | 4998 |
| trv (trivet) | DRSC13846 | 72269 | 2410 |
| trv (trivet) | DRSC14559 | 1.28e5 | 5818 |
| trv (trivet) | DRSC14560 | 1.12e5 | 6006 |
| trv (trivet) | DRSC14561 | 1.26e5 | 5280 |
| Cad88C (Cadherin 88C) | DRSC15486 | 1.15e5 | 5296 |
| CG18477 + CG31780 | DRSC01955 | 1.02e5 | 4295 |
| CG12680 | DRSC17871 | 1.02e5 | 4599 |
| Rlip (Ral interacting protein) | DRSC16828 | 1.31e5 | 6395 |
| BckdhA (Branched chain keto acid dehydrogenase E1 subunit alpha) | DRSC16395 | 1.48e5 | 6424 |
| CG43707 | DRSC00280 | 1.30e5 | 4930 |
| Mettl14 (Methyltransferase like 14) | DRSC03073 | 76850 | 3342 |
| robls54B (roadblock similar 54B) | DRSC05660 | 1.71e5 | 6782 |
| CG18231 | DRSC10307 | 1.50e5 | 7516 |
| CG42272 | DRSC08766 | 1.43e5 | 4142 |
| CG14391 | DRSC14850 | 1.52e5 | 5562 |
| CG13615 | DRSC14618 | 1.10e5 | 6249 |
| CG9568 | DRSC03265 | 1.44e5 | 5458 |
| CG15023 | DRSC08477 | 88144 | 3712 |
| hrg (hiiragi) | DRSC07502 | 1.32e5 | 5129 |
| spdi (split discs) | DRSC18487 | 1907 | 936 |
| spdi (split discs) | DRSC18488 | 62278 | 3855 |
| CG4702 | DRSC15626 | 69783 | 3558 |
| EndoU (Endoribonuclease U-specific) | DRSC15472 | 85591 | 3911 |
| Tdc1 (Tyrosine decarboxylase 1) | DRSC04942 | 1.37e5 | 5049 |
| CG14567 | DRSC11728 | 1.40e5 | 6346 |
| hbs (hibris) | DRSC07627 | 98321 | 4893 |
| CG12123 | DRSC17818 | 8143 | 664 |
| CG5440 | DRSC00685 | 1.73e5 | 5960 |
| dpr4 (defective proboscis extension response 4) | DRSC14531 | 1.71e5 | 7337 |
| dpr4 (defective proboscis extension response 4) | DRSC14929 | 1.42e5 | 6150 |
| CCT6 (Chaperonin containing TCP1 subunit 6) | DRSC20095 | 8156 | 948 |
| CG14435 | DRSC17928 | 57267 | 3901 |
| CG14657 | DRSC12219 | 1.29e5 | 6445 |
| CG14657 | DRSC12243 | 83599 | 3335 |
| TwdlH (TweedleH) | DRSC14735 | 1.16e5 | 7414 |
| CG4594 | DRSC02762 | 62225 | 3323 |
| rho (rhomboid) | DRSC08734 | 1.03e5 | 3707 |
| PGRP-LA (Peptidoglycan recognition protein LA) | DRSC10327 | 1.11e5 | 5539 |
| PGRP-LA (Peptidoglycan recognition protein LA) | DRSC10414 | 1.04e5 | 5718 |
| CG10565 | DRSC11620 | 75556 | 3664 |
| CG15525 | DRSC15062 | 1.08e5 | 6136 |
| COX5A (Cytochrome c oxidase subunit 5A) | DRSC16611 | 1.46e5 | 6142 |
| Pp2A-29B (Protein phosphatase 2A at 29B) | DRSC03400 | 1.56e5 | 4296 |
| CG43896 | DRSC10754 | 1.32e5 | 6920 |

Continued (7 carried over from the part before).
| gene | dsRNA | E2F firefly, rep 1 | Renilla normaliser, rep 1 |
| --- | --- | --- | --- |
| PGRP-LA (Peptidoglycan recognition protein LA) | DRSC10327 | 1.11e5 | 5539 |
| PGRP-LA (Peptidoglycan recognition protein LA) | DRSC10414 | 1.04e5 | 5718 |
| CG10565 | DRSC11620 | 75556 | 3664 |
| CG15525 | DRSC15062 | 1.08e5 | 6136 |
| COX5A (Cytochrome c oxidase subunit 5A) | DRSC16611 | 1.46e5 | 6142 |
| Pp2A-29B (Protein phosphatase 2A at 29B) | DRSC03400 | 1.56e5 | 4296 |
| CG43896 | DRSC10754 | 1.32e5 | 6920 |
| CG7394 | DRSC10835 | 77091 | 4192 |
| Pask (PAS kinase) | DRSC04337 | 92966 | 3631 |
| CG31663 | DRSC00078 | 1.38e5 | 6076 |
| CG31663 | DRSC00389 | 83185 | 3585 |
| CG31663 | DRSC00390 | 56150 | 3721 |
| CG31663 | DRSC00393 | 1.64e5 | 7094 |
| CG12909 | DRSC06224 | 1.30e5 | 5425 |
| dpr15 (defective proboscis extension response 15) | DRSC12891 | 85122 | 2600 |
| dpr15 (defective proboscis extension response 15) | DRSC14187 | 1.24e5 | 6396 |
| dpr15 (defective proboscis extension response 15) | DRSC14188 | 1.51e5 | 6714 |
| Cpr60D (Cuticular protein 60D) | DRSC04492 | 1.06e5 | 4629 |
| cyp33 (cyclophilin-33) | DRSC07600 | 75763 | 3919 |
| CG16812 | DRSC02519 | 81653 | 3397 |
| Idgf1 (Imaginal disc growth factor 1) | DRSC03349 | 88223 | 3288 |
| CG10208 | DRSC14211 | 1.21e5 | 6276 |
| CG11456 | DRSC11665 | 71595 | 3298 |
| CG18131 | DRSC00517 | 1.37e5 | 4776 |
| aph-1 (anterior pharynx defective 1) | DRSC00547 | 85921 | 3593 |
| beat-Ia (beaten path Ia) | DRSC03489 | 1.08e5 | 4646 |
| CG2656 | DRSC12584 | 70753 | 3866 |
| Or47a (Odorant receptor 47a) | DRSC07491 | 1.06e5 | 4701 |
| alpha-Est10 (alpha-Esterase-10) | DRSC12613 | 1.27e5 | 5808 |
| gammaCOP (Coat Protein (coatomer) gamma) | DRSC16955 | 32736 | 4714 |
| Loxl2 (Lysyl oxidase-like 2) | DRSC04469 | 73787 | 2953 |
| Cyp4aa1 (Cytochrome P450 4aa1) | DRSC07368 | 1.46e5 | 4401 |
| CG14957 | DRSC08416 | 1.04e5 | 4098 |
| Cdc7 (Cdc7 kinase) | DRSC18428 | 5855 | 313 |
| Cdc7 (Cdc7 kinase) | DRSC18429 | 71219 (active) | 6033 |
| CG8230 | DRSC05931 | 1.44e5 | 5092 |
| CG30151 | DRSC05888 | 1.58e5 | 5555 |
| comm2 | DRSC09881 | 1.67e5 | 7852 |
| comm2 | DRSC10877 | 1.89e5 | 8738 |
| tsr (twinstar) | DRSC04718 | 1.20e5 | 5148 |
| Tsf2 (Transferrin 2) | DRSC09751 | 78525 | 3506 |
| salt (salty dog) | DRSC15427 | 2083 | 1308 |
| Or22b (Odorant receptor 22b) | DRSC00765 | 1.79e5 | 6757 |
